The other results are listed elsewhere or left out.

Protein sequences, listed by entry. Tags and fused reporters are not part of them. Lines headed by an entry give the natural chain unless they say otherwise; changes in a name come on top.
UniProt Q86U42: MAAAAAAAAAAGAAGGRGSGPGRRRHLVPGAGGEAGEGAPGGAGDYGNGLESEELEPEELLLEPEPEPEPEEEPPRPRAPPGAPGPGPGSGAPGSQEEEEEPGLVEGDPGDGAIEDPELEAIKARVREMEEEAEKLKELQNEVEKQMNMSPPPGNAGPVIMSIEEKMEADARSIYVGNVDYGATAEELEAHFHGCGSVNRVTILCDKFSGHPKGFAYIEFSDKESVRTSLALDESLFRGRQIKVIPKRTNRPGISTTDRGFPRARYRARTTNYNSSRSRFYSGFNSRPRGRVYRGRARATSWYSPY
UniProt Q92882: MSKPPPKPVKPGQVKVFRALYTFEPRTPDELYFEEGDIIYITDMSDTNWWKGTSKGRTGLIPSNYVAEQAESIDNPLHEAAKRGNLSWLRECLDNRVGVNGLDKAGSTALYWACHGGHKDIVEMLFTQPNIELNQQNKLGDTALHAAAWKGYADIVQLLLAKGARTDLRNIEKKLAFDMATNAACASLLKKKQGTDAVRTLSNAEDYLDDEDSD
UniProt Q8NB37: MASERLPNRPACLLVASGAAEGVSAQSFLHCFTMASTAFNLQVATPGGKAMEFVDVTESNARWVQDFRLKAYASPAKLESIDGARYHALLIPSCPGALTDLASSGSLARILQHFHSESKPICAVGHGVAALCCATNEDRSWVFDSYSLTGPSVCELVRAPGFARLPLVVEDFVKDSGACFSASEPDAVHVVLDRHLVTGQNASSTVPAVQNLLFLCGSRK
UniProt A6NDG6: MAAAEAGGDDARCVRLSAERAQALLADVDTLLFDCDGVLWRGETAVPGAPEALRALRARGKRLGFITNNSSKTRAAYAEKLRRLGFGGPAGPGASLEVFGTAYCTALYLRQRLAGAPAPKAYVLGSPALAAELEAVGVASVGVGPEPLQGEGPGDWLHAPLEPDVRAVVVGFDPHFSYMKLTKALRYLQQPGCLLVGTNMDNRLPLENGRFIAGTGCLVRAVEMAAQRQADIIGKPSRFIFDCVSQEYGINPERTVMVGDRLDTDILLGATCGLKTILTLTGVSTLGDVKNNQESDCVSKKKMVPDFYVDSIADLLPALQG
UniProt Q9H814, whole entry: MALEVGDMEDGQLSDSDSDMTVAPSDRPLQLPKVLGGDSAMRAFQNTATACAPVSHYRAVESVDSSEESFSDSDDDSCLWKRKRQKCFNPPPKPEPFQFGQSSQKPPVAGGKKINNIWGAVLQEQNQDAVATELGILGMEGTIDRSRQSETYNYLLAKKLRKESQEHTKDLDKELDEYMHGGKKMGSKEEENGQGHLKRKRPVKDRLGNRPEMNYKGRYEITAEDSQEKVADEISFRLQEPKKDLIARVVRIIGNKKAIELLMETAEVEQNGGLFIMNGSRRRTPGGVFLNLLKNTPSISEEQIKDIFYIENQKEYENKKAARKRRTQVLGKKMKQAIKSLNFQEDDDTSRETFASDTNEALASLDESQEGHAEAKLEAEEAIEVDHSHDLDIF
UniProt Q8N8D1: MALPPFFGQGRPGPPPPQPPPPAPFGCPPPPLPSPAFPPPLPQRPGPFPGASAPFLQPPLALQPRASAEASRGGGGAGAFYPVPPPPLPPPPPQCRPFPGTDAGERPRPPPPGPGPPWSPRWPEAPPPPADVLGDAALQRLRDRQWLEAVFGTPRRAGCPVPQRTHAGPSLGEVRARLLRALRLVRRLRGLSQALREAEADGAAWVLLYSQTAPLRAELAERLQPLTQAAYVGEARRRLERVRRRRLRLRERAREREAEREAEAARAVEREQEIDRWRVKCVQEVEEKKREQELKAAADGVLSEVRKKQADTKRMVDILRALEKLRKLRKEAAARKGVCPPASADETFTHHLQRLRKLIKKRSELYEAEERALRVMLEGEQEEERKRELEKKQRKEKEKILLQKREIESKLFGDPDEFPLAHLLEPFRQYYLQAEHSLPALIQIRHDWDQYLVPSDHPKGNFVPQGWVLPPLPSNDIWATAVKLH
UniProt Q9P1Y6: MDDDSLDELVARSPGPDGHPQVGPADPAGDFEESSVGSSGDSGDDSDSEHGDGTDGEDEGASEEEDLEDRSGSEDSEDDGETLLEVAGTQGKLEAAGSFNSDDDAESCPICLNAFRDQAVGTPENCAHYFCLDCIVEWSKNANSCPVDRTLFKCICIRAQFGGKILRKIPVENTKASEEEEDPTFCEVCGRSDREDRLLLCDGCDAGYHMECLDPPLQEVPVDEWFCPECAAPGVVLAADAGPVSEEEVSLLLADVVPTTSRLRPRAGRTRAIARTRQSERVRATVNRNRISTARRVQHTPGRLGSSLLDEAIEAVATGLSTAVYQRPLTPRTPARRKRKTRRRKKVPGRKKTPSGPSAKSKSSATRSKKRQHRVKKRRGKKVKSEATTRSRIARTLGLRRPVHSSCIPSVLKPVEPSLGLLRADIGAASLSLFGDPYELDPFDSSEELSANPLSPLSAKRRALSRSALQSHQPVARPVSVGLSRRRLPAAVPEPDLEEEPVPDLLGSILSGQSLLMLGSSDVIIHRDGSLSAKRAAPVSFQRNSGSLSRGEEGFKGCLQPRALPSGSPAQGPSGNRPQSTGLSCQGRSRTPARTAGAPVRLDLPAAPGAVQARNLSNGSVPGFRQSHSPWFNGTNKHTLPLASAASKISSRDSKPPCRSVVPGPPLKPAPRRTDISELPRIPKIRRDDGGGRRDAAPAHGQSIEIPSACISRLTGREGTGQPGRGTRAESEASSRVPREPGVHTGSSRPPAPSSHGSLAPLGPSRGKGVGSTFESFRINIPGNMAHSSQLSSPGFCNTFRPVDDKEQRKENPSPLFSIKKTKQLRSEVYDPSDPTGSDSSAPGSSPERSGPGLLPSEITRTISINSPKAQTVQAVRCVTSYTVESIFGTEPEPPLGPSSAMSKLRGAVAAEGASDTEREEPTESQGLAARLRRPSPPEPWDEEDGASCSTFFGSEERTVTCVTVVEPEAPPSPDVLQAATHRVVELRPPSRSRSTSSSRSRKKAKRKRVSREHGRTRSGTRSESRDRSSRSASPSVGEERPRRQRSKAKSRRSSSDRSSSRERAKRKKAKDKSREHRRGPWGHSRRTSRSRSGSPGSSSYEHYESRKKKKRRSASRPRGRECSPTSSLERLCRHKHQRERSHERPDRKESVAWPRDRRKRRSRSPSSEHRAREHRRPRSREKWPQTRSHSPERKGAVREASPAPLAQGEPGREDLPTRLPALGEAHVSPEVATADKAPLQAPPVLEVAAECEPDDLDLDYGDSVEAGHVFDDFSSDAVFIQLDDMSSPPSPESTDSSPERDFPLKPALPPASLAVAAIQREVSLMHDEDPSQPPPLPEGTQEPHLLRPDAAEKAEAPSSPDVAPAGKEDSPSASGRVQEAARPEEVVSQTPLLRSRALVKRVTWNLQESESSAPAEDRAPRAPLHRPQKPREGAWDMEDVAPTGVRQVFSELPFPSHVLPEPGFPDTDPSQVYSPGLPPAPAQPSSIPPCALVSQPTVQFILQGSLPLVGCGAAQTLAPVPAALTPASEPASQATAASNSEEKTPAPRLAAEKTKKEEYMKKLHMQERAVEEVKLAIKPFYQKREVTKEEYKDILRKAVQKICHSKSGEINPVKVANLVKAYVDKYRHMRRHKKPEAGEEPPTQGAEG
UniProt Q9NVE7: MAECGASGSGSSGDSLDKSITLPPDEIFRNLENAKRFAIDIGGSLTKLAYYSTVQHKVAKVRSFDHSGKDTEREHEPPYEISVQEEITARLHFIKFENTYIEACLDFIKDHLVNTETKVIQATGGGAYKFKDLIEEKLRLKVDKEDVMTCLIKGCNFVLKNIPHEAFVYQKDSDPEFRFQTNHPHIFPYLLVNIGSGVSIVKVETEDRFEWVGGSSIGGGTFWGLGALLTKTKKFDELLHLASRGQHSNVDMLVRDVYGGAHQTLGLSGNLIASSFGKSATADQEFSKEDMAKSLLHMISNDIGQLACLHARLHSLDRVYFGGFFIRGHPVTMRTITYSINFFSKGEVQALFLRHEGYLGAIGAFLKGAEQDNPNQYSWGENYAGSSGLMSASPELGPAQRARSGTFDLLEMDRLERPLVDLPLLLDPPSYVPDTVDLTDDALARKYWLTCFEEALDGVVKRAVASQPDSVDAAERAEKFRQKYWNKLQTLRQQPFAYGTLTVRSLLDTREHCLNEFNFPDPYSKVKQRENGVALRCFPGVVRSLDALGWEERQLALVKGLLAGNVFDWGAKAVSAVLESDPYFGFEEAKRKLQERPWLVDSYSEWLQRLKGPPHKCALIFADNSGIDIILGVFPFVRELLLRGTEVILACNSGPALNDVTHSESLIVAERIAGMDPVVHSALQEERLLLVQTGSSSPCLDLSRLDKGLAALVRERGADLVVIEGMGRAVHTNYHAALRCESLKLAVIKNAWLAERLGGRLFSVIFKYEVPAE
UniProt P22061: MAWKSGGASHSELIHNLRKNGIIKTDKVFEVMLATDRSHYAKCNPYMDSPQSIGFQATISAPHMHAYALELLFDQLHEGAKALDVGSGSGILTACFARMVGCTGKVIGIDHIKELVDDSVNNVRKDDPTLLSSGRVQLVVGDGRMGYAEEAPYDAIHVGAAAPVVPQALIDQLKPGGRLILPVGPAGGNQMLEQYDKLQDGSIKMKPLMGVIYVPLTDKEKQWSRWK
UniProt Q96G03: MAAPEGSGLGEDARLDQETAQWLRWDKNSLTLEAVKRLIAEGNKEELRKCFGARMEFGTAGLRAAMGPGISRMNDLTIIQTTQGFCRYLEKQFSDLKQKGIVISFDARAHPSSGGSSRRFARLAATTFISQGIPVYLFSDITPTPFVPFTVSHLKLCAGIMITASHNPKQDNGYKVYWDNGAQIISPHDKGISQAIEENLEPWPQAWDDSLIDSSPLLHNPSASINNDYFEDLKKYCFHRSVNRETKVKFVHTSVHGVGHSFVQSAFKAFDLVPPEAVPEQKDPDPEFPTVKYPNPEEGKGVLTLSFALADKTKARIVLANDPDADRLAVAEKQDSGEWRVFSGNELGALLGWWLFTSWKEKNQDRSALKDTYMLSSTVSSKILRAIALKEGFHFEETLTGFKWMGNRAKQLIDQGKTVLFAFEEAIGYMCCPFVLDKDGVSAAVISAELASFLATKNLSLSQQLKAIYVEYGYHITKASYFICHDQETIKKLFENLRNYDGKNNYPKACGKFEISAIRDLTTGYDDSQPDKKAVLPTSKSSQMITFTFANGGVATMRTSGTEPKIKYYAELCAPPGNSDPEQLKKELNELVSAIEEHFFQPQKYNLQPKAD
UniProt P30086: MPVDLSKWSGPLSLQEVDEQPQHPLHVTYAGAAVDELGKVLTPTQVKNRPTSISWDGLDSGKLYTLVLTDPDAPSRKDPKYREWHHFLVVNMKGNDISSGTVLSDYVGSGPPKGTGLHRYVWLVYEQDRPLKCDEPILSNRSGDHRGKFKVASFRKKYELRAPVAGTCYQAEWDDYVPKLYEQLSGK
UniProt O95336: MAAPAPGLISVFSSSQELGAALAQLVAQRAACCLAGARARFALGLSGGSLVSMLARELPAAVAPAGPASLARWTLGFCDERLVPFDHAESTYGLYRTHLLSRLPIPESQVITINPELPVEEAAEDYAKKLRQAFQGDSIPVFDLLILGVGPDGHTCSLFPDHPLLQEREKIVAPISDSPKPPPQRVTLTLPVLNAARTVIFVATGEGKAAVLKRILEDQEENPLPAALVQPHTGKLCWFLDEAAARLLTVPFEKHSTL
UniProt Q9H490: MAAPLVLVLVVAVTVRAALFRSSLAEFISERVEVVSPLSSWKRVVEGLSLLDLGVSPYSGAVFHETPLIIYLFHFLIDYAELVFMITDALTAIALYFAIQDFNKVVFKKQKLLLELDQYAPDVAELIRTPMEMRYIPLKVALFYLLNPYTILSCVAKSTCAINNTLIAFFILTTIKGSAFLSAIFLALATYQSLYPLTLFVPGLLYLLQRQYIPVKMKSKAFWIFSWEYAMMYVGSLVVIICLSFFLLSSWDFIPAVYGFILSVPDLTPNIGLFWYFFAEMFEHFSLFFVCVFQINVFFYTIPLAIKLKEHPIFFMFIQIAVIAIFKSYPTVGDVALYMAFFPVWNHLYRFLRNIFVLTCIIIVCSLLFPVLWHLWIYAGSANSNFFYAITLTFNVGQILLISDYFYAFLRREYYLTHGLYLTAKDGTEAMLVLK
UniProt P78356: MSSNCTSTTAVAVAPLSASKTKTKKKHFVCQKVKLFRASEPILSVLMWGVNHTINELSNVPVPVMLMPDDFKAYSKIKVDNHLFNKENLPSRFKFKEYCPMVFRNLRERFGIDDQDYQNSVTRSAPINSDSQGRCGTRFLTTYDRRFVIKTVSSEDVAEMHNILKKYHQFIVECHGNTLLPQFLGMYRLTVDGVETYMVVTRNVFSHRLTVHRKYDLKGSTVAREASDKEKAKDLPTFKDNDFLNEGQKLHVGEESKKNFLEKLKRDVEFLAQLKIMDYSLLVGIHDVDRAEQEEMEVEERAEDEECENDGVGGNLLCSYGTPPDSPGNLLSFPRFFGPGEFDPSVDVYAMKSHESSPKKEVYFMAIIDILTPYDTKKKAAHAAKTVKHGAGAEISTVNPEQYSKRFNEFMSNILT

Compound in the assay: COc1ccc(Cn2ccc3cc(C)c(C(=O)NO)cc32)cc1
Nature of the assay: dose-dependent thermal stabilisation call (2D-TPP, DLPTP, 10% FDR) (binary (1 = stabilised)); higher = stabilised by the compound. The settings on record: system: HL-60 intact cells; concentration range 0.04-10 µM. As for the experimental part:
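2D thermal proteome profiling in intact HL-60 cells treated with BRD-3811 (0, 0.04, 0.29, 2, 10 uM) for 90 min at 37 C, then heated 3 min at one of 12 temperatures (42-63.9 C). Soluble protein was quantified by TMT10 MS. The value is the DLPTP call of the paper: dose-dependent thermal stabilisation over all temperatures at 10% FDR (F-test of a dose-response against a flat model); one experiment, one call per tested protein.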
As to P2RY8 (UniProt Q86VZ1), the “dose-dependent thermal stabilisation call” value was inactive: 0.

Take PABPN1 (UniProt Q86U42): the “dose-dependent thermal stabilisation call” value was inactive: 0. Next, PES1 (UniProt O00541): inactive: 0. For OSTF1 (UniProt Q92882), the “dose-dependent thermal stabilisation call” value was inactive: 0. The value for OXR1 (UniProt Q8N573) was inactive: 0; that for PDIA5 (UniProt Q14554) was inactive: 0; that for PDDC1 (UniProt Q8NB37) was inactive: 0. Next, PGP (UniProt A6NDG6): inactive: 0; PHAX (UniProt Q9H814): inactive: 0; PFN2 (UniProt P35080): inactive: 0. Next, OGT (UniProt O15294): inactive: 0; PIGQ (UniProt Q9BRB3): inactive: 0; PCTP (UniProt Q9UKL6): inactive: 0.

For the target PCNP (UniProt Q8WW12), the “dose-dependent thermal stabilisation call” value was inactive: 0. Consider PDCD7 (UniProt Q8N8D1), for which the “dose-dependent thermal stabilisation call” value was inactive: 0. Take PI4KA (UniProt P42356): the “dose-dependent thermal stabilisation call” value is inactive: 0. For PFN1 (UniProt P07737), the “dose-dependent thermal stabilisation call” value is inactive: 0. Next, PHRF1 (UniProt Q9P1Y6): inactive: 0; PANK4 (UniProt Q9NVE7): inactive: 0; PCMT1 (UniProt P22061): inactive: 0.

As to PLS1 (UniProt Q14651), the “dose-dependent thermal stabilisation call” value is inactive: 0.

For PIN4 (UniProt Q9Y237), the “dose-dependent thermal stabilisation call” value is inactive: 0.

In the case of PCBD1 (UniProt P61457), the “dose-dependent thermal stabilisation call” value was inactive: 0. Next, PDE4DIP (UniProt Q5VU43): inactive: 0; ORMDL2 (UniProt Q53FV1): inactive: 0. With PI4K2A (UniProt Q9BTU6), the “dose-dependent thermal stabilisation call” value is inactive: 0. Next, PIK3R1 (UniProt P27986): inactive: 0; PIN1 (UniProt Q13526): inactive: 0. The value for PGM2 (UniProt Q96G03) was inactive: 0; that for PLCG1 (UniProt P19174) was inactive: 0; that for PEBP1 (UniProt P30086) was inactive: 0.

Take PGLS (UniProt O95336): the “dose-dependent thermal stabilisation call” value was inactive: 0. The value for P76 was inactive: 0; that for PIGU (UniProt Q9H490) was inactive: 0; that for PIP4K2B (UniProt P78356) was inactive: 0.

As for PDHB (UniProt P11177), the “dose-dependent thermal stabilisation call” value was inactive: 0.
